Assay results reported in patent US20150299314A1.
No constants are given. Whether binding was seen depends on the method and setting. Some binding calls cover weakened binding; strength is not graded here.

Amino acid sequences for entries named in this document (tags omitted). Residues count along the entry.
UniProt Q14444, residues 2-709: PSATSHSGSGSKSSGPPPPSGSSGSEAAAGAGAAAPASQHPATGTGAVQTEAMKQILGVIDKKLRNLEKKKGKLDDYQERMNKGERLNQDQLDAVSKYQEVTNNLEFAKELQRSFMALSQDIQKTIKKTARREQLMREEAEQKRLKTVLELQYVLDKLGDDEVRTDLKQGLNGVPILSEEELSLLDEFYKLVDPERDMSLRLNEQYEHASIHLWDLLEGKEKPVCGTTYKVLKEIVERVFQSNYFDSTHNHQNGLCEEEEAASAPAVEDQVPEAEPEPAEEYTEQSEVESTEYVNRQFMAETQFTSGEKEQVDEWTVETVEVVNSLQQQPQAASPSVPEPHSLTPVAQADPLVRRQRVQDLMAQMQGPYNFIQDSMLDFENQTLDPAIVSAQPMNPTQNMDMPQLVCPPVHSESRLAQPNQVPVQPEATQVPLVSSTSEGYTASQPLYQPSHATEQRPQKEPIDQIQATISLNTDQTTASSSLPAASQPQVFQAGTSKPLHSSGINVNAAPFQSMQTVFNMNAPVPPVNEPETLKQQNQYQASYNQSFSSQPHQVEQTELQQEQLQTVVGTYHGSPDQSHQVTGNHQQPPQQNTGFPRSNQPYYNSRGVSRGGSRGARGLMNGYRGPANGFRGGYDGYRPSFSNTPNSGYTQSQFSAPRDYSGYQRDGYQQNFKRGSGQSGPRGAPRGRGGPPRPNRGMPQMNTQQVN

Each binder was assayed against CAPRIN-1 protein expressed on the cell surface of human cancer cells (human) (UniProt Q14444) (assay: flow cytometry, TGBC14TKB cells, as in Example 10).

binding | Binder
binds | anti-CAPRIN-1 monoclonal antibody #27 (antibody, V domains shown) VH: GGGLVQPGGSMRLSCVASGFTFSNSWFNWVRQSPEKGLEWVAEIRLTSDNYAIYYAESVKGRFTISRDDSKSSVYLQMNNLRAEDTGIYYCTRPETARATFAYWGQGTTVTVSS VL: DVLMTQTPLSLPVSLGDQASISCRSSQSIVHSNGNTYLEWYLQKPGQSPKVLIYKVFNRFSGVPDRFSGSGSGTDFTLKISRVEAEDLGVYYCFQGSHVPRTFGGGTKLNQTG
binds | anti-CAPRIN-1 monoclonal antibody #29 (antibody, V domains shown) VH: GAELVKPGASVKLSCTASGLNIRDIYMHWVKQRPEQGLEWIGKIDPANGNTKYDPKFQGKATITADTSSNTAYVQLSSLTSEDTAVYYCAGTGDYWGQGTTVTVSS VL: GTCGDIVMSQSPSSLAVSAGEKVTMSCKSSQSLLNSRTRKNYLAWVQHKPGQSPRLLIYWASTRESGVPDRFTGSGSGTDFTLTISSVQAEDLAVYYCRQSYNLVTFGAGPS
binds | anti-CAPRIN-1 monoclonal antibody #28 (antibody, V domains shown) VH: GPDLVKPGASVKISCKASGYSFTAYYMHWVKQSHGKSLEWIGRVNPNNGGTTYNQKFKGKAILTVDKSSSTAYMELRSLTFEDSAVYYCARRIYYGYFDYWGQGTTVTVSS VL: AFFAVSLGQRATISCKASQSVDYDGDSYMNWYQQKPGQPPKLLIYVASNLESGVPARFSGSGSGTDFTLNIHPVEEEDAATYYCQQSNEDPYTFGGGTKLEIKQ
